# Laboratory results from article PMC5179076.
# Tested on: RNA polymerase RpoD (sigma70) holoenzyme (Escherichia coli K-12 W3110 (type-A))
# Experiment: EMSA
# Conditions: 0-1000 nM RNAP, affinity almost the same as riRNA promoter probe; EMSA: 50 mM Tris-HCl pH 7.8 (37 C), 50 mM NaCl, 3 mM Mg acetate, 0.1 mM EDTA, 0.1 mM DTT, BSA, 37 C 30 min, probe 10 nM (Methods) or 50 nM; native protein; probe letters rebuilt from the primers and the genome
sequence,measurement,value
CATCCTTATTTTTCGCCCGCATTGTAACGAAAACGTTTGCGCAACGCTCGCGAATTTTTCTCTTTCAATGGTGATCACAATTTTGACTGTGGTTACCGTGGGCAAAATACAGAAATTACATTGATGATTGTGGATAACTCTGTGCGTAAAAAGGTATAAAGCGGGCTTTTGCTGGGGAATGCAGCAGTCAGTCATTTTTCTGCAATTTTTCTATTGCGGCCTGCGGAGAACTCCCTATAATGCGCCTCCATCGACACGGCGGATGTGAATCACTTCACACAAACAGCCGGTTCGGTTGAAGAGAAAAATCCTGAAATTCAGGGTTGACTCTGAAAGAGGAAAGCGTAATATACGCCACCTCGCGACAGTGCGCTAAAGCGCGTCGCAACTGCTCTTTAACAATTTATCAGACAATCTGTGTGGGCACTCGAAGATACGGATTCTTAACGTCGCAAGACGAAAAATGAATACCAAGTCTCAAGAGTGAACACGTAATTCATTACGAAGTTTAATTCTTTGAGCATCAAACTTTTAAATTGAAGAGTTTGATCATGGCT (double strand) [Probe G1 (rrnD major promoter P1-P2)],binding result,binds

# For at least one entry, the source does not settle the construct or the ends of the probe.
